Measured values published in PMC7352350.
Results are given in words; binding and its absence hold for the method and conditions named. Some entries that bind do so weakly or less than the wild type. Each block holds one substance with its values, some of them ahead of it.

Protein sequences, listed by entry. Tags and fused reporters are not part of them. Lines headed by an entry give the natural chain unless they say otherwise; changes in a name come on top. Chains listed by the source or under a name are the forms on record and can include a tag or linker. Residues count along the entry.
UniProt P14780: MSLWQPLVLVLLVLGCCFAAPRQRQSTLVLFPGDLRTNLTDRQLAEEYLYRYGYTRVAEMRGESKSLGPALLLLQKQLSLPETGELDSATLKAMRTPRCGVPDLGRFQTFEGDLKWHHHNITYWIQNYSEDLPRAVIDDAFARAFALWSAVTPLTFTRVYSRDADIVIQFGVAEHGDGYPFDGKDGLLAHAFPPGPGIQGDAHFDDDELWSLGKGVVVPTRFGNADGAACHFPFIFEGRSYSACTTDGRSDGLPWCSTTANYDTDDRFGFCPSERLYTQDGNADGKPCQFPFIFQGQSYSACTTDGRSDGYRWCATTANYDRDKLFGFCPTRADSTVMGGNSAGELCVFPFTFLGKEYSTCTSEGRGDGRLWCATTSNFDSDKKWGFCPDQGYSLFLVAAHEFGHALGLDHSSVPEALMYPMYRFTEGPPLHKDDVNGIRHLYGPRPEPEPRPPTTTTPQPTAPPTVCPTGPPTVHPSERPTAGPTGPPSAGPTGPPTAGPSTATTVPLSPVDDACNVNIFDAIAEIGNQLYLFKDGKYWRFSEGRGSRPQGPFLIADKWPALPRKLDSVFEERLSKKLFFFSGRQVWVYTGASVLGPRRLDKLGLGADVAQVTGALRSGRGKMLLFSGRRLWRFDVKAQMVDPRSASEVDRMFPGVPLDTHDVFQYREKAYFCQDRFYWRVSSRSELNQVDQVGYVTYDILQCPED
recombinant proMMP-9 lacking the FnII module (P14780, form named): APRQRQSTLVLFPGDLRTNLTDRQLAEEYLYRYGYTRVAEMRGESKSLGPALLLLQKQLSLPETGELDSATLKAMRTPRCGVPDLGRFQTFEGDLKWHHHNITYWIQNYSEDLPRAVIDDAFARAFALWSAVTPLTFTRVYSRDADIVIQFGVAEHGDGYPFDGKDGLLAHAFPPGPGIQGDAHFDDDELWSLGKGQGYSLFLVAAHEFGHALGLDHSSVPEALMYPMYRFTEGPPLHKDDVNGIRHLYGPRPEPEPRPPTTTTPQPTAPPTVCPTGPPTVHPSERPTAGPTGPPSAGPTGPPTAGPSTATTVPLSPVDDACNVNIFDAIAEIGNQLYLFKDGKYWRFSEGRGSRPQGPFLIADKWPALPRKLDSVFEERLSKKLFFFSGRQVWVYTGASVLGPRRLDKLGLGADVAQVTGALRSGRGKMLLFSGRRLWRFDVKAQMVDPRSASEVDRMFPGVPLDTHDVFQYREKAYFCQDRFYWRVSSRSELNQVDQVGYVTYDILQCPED
recombinant proMMP-9 lacking the FnII module and the HPX domain (P14780, form named): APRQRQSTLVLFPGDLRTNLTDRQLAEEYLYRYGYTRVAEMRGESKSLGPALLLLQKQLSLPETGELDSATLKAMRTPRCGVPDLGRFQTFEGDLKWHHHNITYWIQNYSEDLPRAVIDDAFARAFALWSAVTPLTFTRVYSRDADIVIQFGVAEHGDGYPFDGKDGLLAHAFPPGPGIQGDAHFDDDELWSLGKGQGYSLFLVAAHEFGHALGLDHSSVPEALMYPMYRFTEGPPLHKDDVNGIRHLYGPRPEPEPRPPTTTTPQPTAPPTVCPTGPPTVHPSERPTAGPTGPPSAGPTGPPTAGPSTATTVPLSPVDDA
recombinant proMMP-9 lacking the FnII module, the OG and the HPX domains (P14780, form named): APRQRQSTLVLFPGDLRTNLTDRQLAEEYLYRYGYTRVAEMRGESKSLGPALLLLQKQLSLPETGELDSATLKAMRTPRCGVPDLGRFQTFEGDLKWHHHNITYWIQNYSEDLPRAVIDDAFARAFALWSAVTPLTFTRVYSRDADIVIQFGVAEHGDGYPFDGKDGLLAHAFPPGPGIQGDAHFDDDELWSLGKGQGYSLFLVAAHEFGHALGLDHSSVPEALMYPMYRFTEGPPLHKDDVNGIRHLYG
UniProt P01033, residues 24-207: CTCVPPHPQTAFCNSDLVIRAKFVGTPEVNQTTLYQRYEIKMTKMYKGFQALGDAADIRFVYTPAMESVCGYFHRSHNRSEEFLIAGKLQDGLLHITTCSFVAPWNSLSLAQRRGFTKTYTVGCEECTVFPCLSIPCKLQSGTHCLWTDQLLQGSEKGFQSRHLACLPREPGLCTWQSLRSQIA

Columns and labels:
[1] = target: proMMP-9 purified from THP-1 cells (human (endogenous in THP-1)) (UniProt P14780); assay: co-purification on gelatin-Sepharose, SDS-PAGE; THP-1 conditioned medium, Q-Sepharose pass-through applied to gelatin-Sepharose; 28-30 kDa band beside the 92 kDa proMMP-9
[2] = target: T1, SG peptide 13 (human) (UniProt P10124); assay: peptide or protein array; 20-mer walk of the SG core protein on cellulose, two-residue shift; 8.8 ul of 11.2 ug/mL proMMP-9 in 10 mL blocking buffer, 1-4 h, room temperature; antibody against MMP-9; both purified
T1 sequence (peptide): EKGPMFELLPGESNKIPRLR

[3] = target: T2, SG peptide 16 (human) (UniProt P10124); assay: as above
T2 sequence (peptide): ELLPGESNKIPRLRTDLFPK

[4] = target: T3, purified chondroitin sulfate proteoglycan from unstimulated THP-1 cells, mainly serglycin (human (endogenous in THP-1)) (UniProt P10124); assay: in vitro reconstitution, complex isolated on Q-Sepharose, Western blotting; as the zymography set-up; samples reduced with 0.1 M DTT before electrophoresis, or unreduced with the gel incubated in 0.1 M DTT before blotting; antibody against MMP-9; both purified
T3 sequence (chain, chondroitin sulfate chains on serines of the eight Ser-Gly repeats (67-84)): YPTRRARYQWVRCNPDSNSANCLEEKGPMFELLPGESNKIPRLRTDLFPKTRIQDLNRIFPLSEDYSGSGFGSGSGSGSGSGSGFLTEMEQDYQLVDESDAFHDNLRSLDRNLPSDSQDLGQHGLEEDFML

[5] = target: T3, purified chondroitin sulfate proteoglycan from unstimulated THP-1 cells, mainly serglycin (human (endogenous in THP-1)); assay: in vitro reconstitution, complex isolated on Q-Sepharose, gelatin zymography; 0.05 uM proMMP-9 variant with 230 ug/mL CSPG/SG, 15 min to 24 h, 37 °C, 0.1 M HEPES pH 7.5, with or without 10 mM EDTA; Q-Sepharose washed with 6 M urea and 0.35 M NaCl, eluted with 1.5 M NaCl; SDS-stable and SDS-soluble complexes; both purified
[6] = target: recombinant proMMP-9 lacking the FnII module (human) (UniProt P14780); assay: SDS-PAGE, Western blotting and real-time gelatin zymography under non-reducing and reducing conditions; partly purified preparation or crude insect-cell media of the ΔFnII variants
[7] = target: T3, purified chondroitin sulfate proteoglycan from unstimulated THP-1 cells, mainly serglycin (human (endogenous in THP-1)); assay: in vitro reconstitution, complex isolated on Q-Sepharose, Western blotting; partly purified or crude insect-cell medium with the ΔFnII variants, mixed with 230 ug/mL purified CSPG/SG, 37 °C, 0.1 M HEPES pH 7.5; samples reduced or gel treated with DTT; antibody against MMP-9; only the target purified
[8] = target: recombinant proMMP-9 lacking the FnII module and the HPX domain (human) (UniProt P14780); assay: SDS-PAGE, Western blotting and real-time gelatin zymography under non-reducing and reducing conditions; partly purified preparation or crude insect-cell media of the ΔFnII variants
[9] = target: T3, purified chondroitin sulfate proteoglycan from unstimulated THP-1 cells, mainly serglycin (human (endogenous in THP-1)); assay: condition: approximately 3 to 5 times as much of these enzymes as used of the rpMMP-9ΔFnII deletion variant; in vitro reconstitution, complex isolated on Q-Sepharose, Western blotting; partly purified or crude insect-cell medium with the ΔFnII variants, mixed with 230 ug/mL purified CSPG/SG, 37 °C, 0.1 M HEPES pH 7.5; samples reduced or gel treated with DTT; antibody against MMP-9; only the target …
[10] = target: recombinant proMMP-9 lacking the FnII module, the OG and the HPX domains (human) (UniProt P14780); assay: SDS-PAGE, Western blotting and real-time gelatin zymography under non-reducing and reducing conditions; partly purified preparation or crude insect-cell media of the ΔFnII variants
[11] = target: T4, SG peptide 21 (human) (UniProt P10124); assay: peptide or protein array; 20-mer walk of the SG core protein on cellulose, two-residue shift; 8.8 ul of 11.2 ug/mL proMMP-9 in 10 mL blocking buffer, 1-4 h, room temperature; antibody against MMP-9; both purified
T4 sequence (peptide): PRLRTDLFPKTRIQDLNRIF

[12] = target: recombinant proMMP-9 lacking the OG and HPX domains (human) (UniProt P14780); assay: SDS-PAGE, Western blotting and gelatin zymography under non-reducing and reducing conditions; purified preparations; SDS-stable, reduction-sensitive homomultimer beside the monomer; both purified

binding [1]: binds
Substance: TIMP-1 (from UniProt P01033 24-207)

binding [4]: binds
binding [5]: binds
Substance: proMMP-9 purified from THP-1 cells (from UniProt P14780 20-707) (enzyme)
binding [2]: no binding (tested: 8.8 ul of 11.2 ug/mL proMMP-9 in 10 mL)
binding [3]: no binding (tested: 8.8 ul of 11.2 ug/mL proMMP-9 in 10 mL)

binding [5]: binds
Substance: recombinant full-length proMMP-9 (from UniProt P14780 20-707) (enzyme)
binding [2]: no binding (tested: 8.8 ul of 11.2 ug/mL proMMP-9 in 10 mL)
binding [3]: no binding (tested: 8.8 ul of 11.2 ug/mL proMMP-9 in 10 mL)

binding [6]: binds
binding [7]: binds
Substance: recombinant proMMP-9 lacking the FnII module (from UniProt P14780 20-707) (enzyme)

binding [8]: binds
binding [9]: no binding
Substance: recombinant proMMP-9 lacking the FnII module and the HPX domain (from UniProt P14780 20-515) (domain or fragment)

binding [10]: no binding
binding [9]: no binding
Substance: recombinant proMMP-9 lacking the FnII module, the OG and the HPX domains (from UniProt P14780 20-444) (domain or fragment)

binding [4]: binds
binding [5]: binds
Substance: recombinant proMMP-9 lacking the HPX domain (from UniProt P14780 20-515) (domain or fragment)
binding [2]: no binding (tested: 8.8 ul of 11.2 ug/mL proMMP-9 in 10 mL)
binding [3]: no binding (tested: 8.8 ul of 11.2 ug/mL proMMP-9 in 10 mL)
binding [11]: no binding (tested: 8.8 ul of 11.2 ug/mL proMMP-9 in 10 mL)

binding [12]: no binding
binding [5]: binds
Substance: recombinant proMMP-9 lacking the OG and HPX domains (from UniProt P14780 20-444) (domain or fragment)
